PubChem BioAssay AID1508588 – Peter MacCallum Cancer Centre | 2020
Aim: 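Knock-downs boosting vemurafenib effects on melanoma cell growth or lactate release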 (primary screen). Cells: human WM266.4 melanoma cells (BRAF V600 mutant). Knock-down reagent: siRNA pool against human genes, 40 nM. Time to read-out: 96 h from transfection to read-out. Challenge: vemurafenib 300 nM (about IC25), added 48 h after transfection, for 48 h; comparison arm got DMSO vehicle only. Measured: 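Ratios to non-targeting siRNA for cell gain, counted as DAPI nuclei after minus before drug and averaged over two replicates, and for absorbance-read medium lactate per cell; both binned into fold-change classes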. Reading the numbers: cell gain with vemurafenib: higher = more cell gain than with non-targeting siRNA; lactate per cell with vemurafenib: higher = more lactate made per cell. Rule for the call: 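Enhancement is called by pairing each knock-down's vehicle-arm and drug-arm fold-change classes for viability or glycolysis; which class combinations qualify is not given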. Calls: active = enhances vemurafenib effect; inactive = no enhancement seen.
This is an unselected part of about 18,000 reagents tested. In the full data, 790 (4.4%) were called active. 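Calls rest on a combination of fold-change classes in drug and vehicle arms, not all shown here.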 A number with no mark means an inactive call. Reagent sequences are not shown.

| gene knocked down | cell gain with vemurafenib | lactate per cell with vemurafenib |
| --- | --- | --- |
| RABGGTA (Rab geranylgeranyltransferase subunit alpha) | 0.63 | 0.54 |
| POMZP3 (POM121 and ZP3 fusion) | 1.18 | 0.62 |
| LINC03122 (long independently transcribed non-coding RNA 3122) | 0.16 | 1.72 |
| UBA2 (ubiquitin like modifier activating enzyme 2) | 0.29 | 1.12 |
| ITIH6 (inter-alpha-trypsin inhibitor heavy chain family member 6) | 1.01 | 0.58 |
| DLG3 (discs large MAGUK scaffold protein 3) | 0.77 | 1.17 |
| RRH (retinal pigment epithelium-derived rhodopsin homolog) | 0.7 | 0.58 |
| TEX10 (testis expressed 10) | 0 | 1.1 |
| TRHR (thyrotropin releasing hormone receptor) | -0.13 | 5.23 |
| CLSTN2 (calsyntenin 2) | 1.45 | 0.64 |
| HBEGF (heparin binding EGF like growth factor) | 0.8 | 0.7 |
| PAK2 (p21 (RAC1) activated kinase 2) | 0.68 | 0.52 |
| TMEM183BP (transmembrane protein 183B, pseudogene) | 0.67 | 0.3 |
| BRD9 (bromodomain containing 9) | 0.6 (active) | 0.64 |
| CDT1 (chromatin licensing and DNA replication factor 1) | 0.67 | 0.98 |
| GAS2L3 (growth arrest specific 2 like 3) | 0.45 | 0.94 |
| CXCR4 (C-X-C motif chemokine receptor 4) | 0.14 | 2.45 |
| TMEM144 (transmembrane protein 144) | 0.37 (active) | 0.7 |
| NT5DC3 (5'-nucleotidase domain containing 3) | 0.69 | 0.54 |
| SLC30A10 | 0.43 | 1.5 |
| MAGI2 | 0.61 | 1.31 |
| VPS51 (VPS51 subunit of GARP complex) | 0.78 | 0.57 |
| MSX1 (msh homeobox 1) | 0.84 | 0.58 |
| PYGO1 (pygopus family PHD finger 1) | 0.35 | 0.88 |
| ARID3A (AT-rich interaction domain 3A) | 0.88 | 0.9 |
| BCL2L2 (BCL2 like 2) | 0.81 | 0.58 |
| C1QBP (complement C1q binding protein) | 0.9 | 0.8 |
| PDHA1 (pyruvate dehydrogenase E1 subunit alpha 1) | 0.61 | -0.34 |
| PPA2 (inorganic pyrophosphatase 2) | 0.3 | 1.17 |
| PRKAR2B | 0.15 | 1.28 |
| ERICH3 (glutamate rich 3) | 0.42 | 1.23 |
| LRIG3 (leucine rich repeats and immunoglobulin like domains 3) | 1.39 | 0.7 |
| PRPF31 (pre-mRNA processing factor 31) | 0.02 | 1.63 |
| CD63 (CD63 molecule) | 0.99 | 0.98 |
| CLEC2L (C-type lectin domain family 2 member L) | 0.62 | 1.48 |
| FUT2 (fucosyltransferase 2 (H blood group)) | 0.93 | 1.18 |
| FAM153B (family with sequence similarity 153 member B) | 1.07 | 0.88 |
| TFIP11 (tuftelin interacting protein 11) | 0.08 | 3.62 |
| RETN (resistin) | 0.12 | 1.56 |
| CYP4F22 (cytochrome P450 family 4 subfamily F member 22) | 1.06 | 0.48 |
| PSMA3 (proteasome 20S subunit alpha 3) | -0.02 | 2.62 |
| SFRP2 (secreted frizzled related protein 2) | 0.27 | 0.28 |
| MRPL50 (mitochondrial ribosomal protein L50) | 0.32 | 1.1 |
| MAN2A2 (mannosidase alpha class 2A member 2) | 0.96 | 0.88 |
| CORO2A (coronin 2A) | 0.11 | 1.78 |

The list goes on; the last 3 above are carried over.
| gene knocked down | cell gain with vemurafenib | lactate per cell with vemurafenib |
| --- | --- | --- |
| MRPL50 (mitochondrial ribosomal protein L50) | 0.32 | 1.1 |
| MAN2A2 (mannosidase alpha class 2A member 2) | 0.96 | 0.88 |
| CORO2A (coronin 2A) | 0.11 | 1.78 |
| DEGS2 (delta 4-desaturase, sphingolipid 2) | 0.83 | 0.77 |
| ATP2C2 (ATPase secretory pathway Ca2+ transporting 2) | 0.59 | 0.86 |
| CDY2B (chromodomain Y-linked 2B) | 0.33 | 1.4 |
| SAMSN1 (SAM domain, SH3 domain and nuclear localization signals 1) | 0.41 | 1.08 |
| ZNF212 (zinc finger protein 212) | 0.6 | 1.31 |
| BET1 (Bet1 golgi vesicular membrane trafficking protein) | 0.43 | 1.3 |
| CALML3 (calmodulin like 3) | 0.69 | 1.64 |
| SLC6A3 | 0.76 | 1.04 |
| NUDT13 (nudix hydrolase 13) | 0.65 | 0.38 |
| RBM34 (RNA binding motif protein 34) | 0.59 | 0.44 |
| UBE2G1 (ubiquitin conjugating enzyme E2 G1) | 0.62 | 0.59 |
| SLC7A8 | 0.9 | 1.4 |
| LTN1 (listerin E3 ubiquitin protein ligase 1) | 1.03 | 0.86 |
| RBM4 (RNA binding motif protein 4) | 0.66 | 1.08 |
| RPL21 (ribosomal protein L21) | -0.06 | 2.09 |
| HOGA1 (4-hydroxy-2-oxoglutarate aldolase 1) | 0.55 | 1.51 |
| YME1L1 (YME1 like 1 ATPase) | 0.66 | 0.79 |
| SLC35A2 | 0.33 | 2.04 |
| CCDC148 (coiled-coil domain containing 148) | 0.44 | 0.6 |
| CDKL5 (cyclin dependent kinase like 5) | 0.43 | 0.6 |
| ZNF784 (zinc finger protein 784) | 0.69 | 0.64 |
| MAPK8IP3 (mitogen-activated protein kinase 8 interacting protein 3) | 0.57 | 1.17 |
| GSTK1 (glutathione S-transferase kappa 1) | 0.61 | 1.2 |
| PIK3C3 (phosphatidylinositol 3-kinase catalytic subunit type 3) | 0.6 | 1.27 |
| PRPF19 (pre-mRNA processing factor 19) | 0.98 | 0.82 |
| KCNJ13 (potassium inwardly rectifying channel subfamily J member 13) | 0.51 | 1.07 |
| PLIN5 (perilipin 5) | 0.31 | 1.12 |
| DHTKD1 (dehydrogenase E1 and transketolase domain containing 1) | 0.63 | 0.79 |
| CARTPT (CART prepropeptide) | 0.3 | 1.56 |
| RAB23 (RAB23, member RAS oncogene family) | 0.94 | 1.39 |
| REEP2 (receptor accessory protein 2) | 0.14 | 2.35 |
| TRIR (telomerase RNA component interacting RNase) | 0.24 | 2.29 |
| NLRP1 (NLR family pyrin domain containing 1) | 0.54 | 0.77 |
| ULBP2 (UL16 binding protein 2) | 0.56 | 1.62 |
| GNG5 (G protein subunit gamma 5) | 0.91 | 1.81 |
| PWWP2B (PWWP domain containing 2B) | 0.61 | 1.42 |
| H3-3B (H3.3 histone B) | 0.76 | 0.43 |
| SPOCD1 (SPOC domain containing 1) | 0.44 | 1.16 |
| KIRREL3 (kirre like nephrin family adhesion molecule 3) | 0.27 (active) | 0.49 |
